Test: peptide synthesis

Q: Which step yield (coupling step) does the source give for “Boc-Tyr(Boc)-(N^δ—Ac)-D-Orn-Gly-Phe(p-NO2)—NH2” here?
A: Its step yield is 31%.

Q: Which step yield (late stage modification step) does the source give for Tyr-(N^δ—Ac)-D-Orn-Gly-Phe(p-NO2)—NH2 here?
A: The step yield was 90%.
